# PubChem BioAssay AID504467 (National Center for Advancing Translational Sciences (NCATS), 2011)
# The campaign covered roughly 330,000 compounds. About 7,700 (2.3%) were called active. The inconclusive results got no clear call from the source; some entries with a clear call stand among them for comparison. Calls follow the shape of the dose curve; as a rule, active = well fitted inhibition curve with a large enough effect; inconclusive = small, poorly fitted or top-dose-only effect, or effect the other way; inactive = flat fitted curve, though single readings scatter. Where the call is inconclusive, the potency comes from a doubtful curve fit.
# Test: qHTS screen for small molecules that inhibit ELG1-dependent DNA repair in human embryonic kidney (HEK293T) cells expressing luciferase-tagged ELG1; also: nearly all actives have a fitted effect of over 55% in size
# Settings: HEK293T ELG1-luciferase reporter, luminescence, 16 h, DNA damage induced by 5-fluorouridine; activity change, negative = inhibition: at 46.1 µM (top of the series)
# Procedure, shortened: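 DMSO vehicle served as the neutral condition. Each well held 2,000 cells given 5-fluorouridine plus compound; after 16 hr at 37 °C/5% CO2, ONE-Glo was added and luciferase measured 30 min later.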
# % is scaled to controls: 0 for no effect and ±100 for the full control effect; potency is read from the fitted curve at half-maximal effect.
SMILES,"activity change, negative = inhibition",Potency
CCOC(=O)C1=C(Cn2cnc3ccccc32)NC(=O)NC1c1cc(C)ccc1C (centres undefined),inactive: -22.9%,
O=C(NCCc1c[nH]c2ccccc12)C(=O)NCC(c1cccnc1)N1CCN(c2ccccc2)CC1 (centres undefined),,"inconclusive: 25.9 µM [inhibitor, partial curve]"
CCCCCOC(=O)c1ccc(OC(=O)c2cncc(Br)c2)cc1,,"inconclusive: 23.1 µM [activator, partial curve]"
COc1ccc(C2Nc3ccccc3C(=O)N2c2ccc(F)cc2)cc1CSc1ccccn1 (centres undefined),,"inconclusive: 18.4 µM [activator, single point]"
C/C(=N\NC(=O)c1ccc2c(c1)OCO2)c1ccco1,,"inconclusive: 4.61 µM [activator, partial curve]"
COc1cccc(N2CCN(C(=O)CCCCCn3c(=S)[nH]c4cc5c(cc4c3=O)OCO5)CC2)c1,inactive: 3.98%,
O=C(COC(=O)c1cc[n+]([O-])cc1)Nc1cc([N+](=O)[O-])ccc1Cl,inactive: -6.67%,
c1ccc(-c2nc(NCC3CCCO3)c3oc4ccccc4c3n2)cc1 (centres undefined),,active: 16.4 µM
Fc1ccc(NC(=S)NNc2ncc(C(F)(F)F)cc2Cl)c(F)c1,,"inconclusive: 3.66 µM [inhibitor, single point]"
CCOC(=O)C1CCCN(CC(=O)/C=C2/N(C)c3ccccc3C2(C)C)C1 (centres undefined),inactive: -16.7%,
CCOc1ccccc1N(C)C(=O)Cn1ncc2c([nH]c3ccccc32)c1=O,,"inconclusive: 20.6 µM [inhibitor, single point]"
CCOc1ccc2nc(SCc3ccccc3C#N)sc2c1,,"inconclusive: 20.6 µM [activator, partial curve]"
CC1CC(C)CN(S(=O)(=O)CC23CCC(CC2=O)C3(C)C)C1 (centres undefined),inactive: 22.5%,
CCOC(=O)C1(Cc2cccc(OC)c2)CCCN(C(=O)CCSC)C1 (centres undefined),,"inconclusive: 18.3 µM [activator, partial curve, poor fit]"
CC(C)(C)NC(=S)N1CCC(C(=O)c2ccc(F)cc2)CC1,inactive: -9.83%,
Cc1ccc(C(C(=O)NC2CCCCC2)N(CC2CCCO2)C(=O)CNC(=O)c2cccs2)cc1 (centres undefined),inactive: -10.4%,
Cc1cc(/C=C2/SC(=O)NC2=O)c(C)n1-c1ccc(N2CCOCC2)cc1,,"inconclusive: 16.4 µM [inhibitor, partial curve, poor fit]"
CCCCCc1ccc(OCCOCCn2c[n+](C)c3ccccc32)c(CCCCC)c1,,active: 7.3 µM
O=[N+]([O-])c1ccc(CSc2ccc(S(=O)(=O)N3CCOCC3)cn2)cc1,,"inconclusive: 29.1 µM [inhibitor, single point]"
Cn1ccc(NC(=O)c2ccc(Cl)cc2)n1,,"inconclusive: 20.6 µM [activator, partial curve]"
COc1ccccc1NS(=O)(=O)c1cccc(NC(=O)c2cc3ccccc3oc2=O)c1,,"inconclusive: 20.6 µM [activator, partial curve]"
O=C(CC(=O)c1cc(Cl)ccc1O)c1ccccc1,,"inconclusive: 20.6 µM [activator, partial curve]"

SMILES,"activity change, negative = inhibition",Potency
NC(=O)c1nn(-c2ccccc2)nc1NC(=O)CSc1nnnn1-c1ccc(Cl)cc1,,"inconclusive: 29.1 µM [inhibitor, single point]"
O=S(=O)(c1cccs1)N1CN(Cc2ccc(F)cc2)c2nc3ccccc3nc21,,"inconclusive: 35.5 µM [activator, single point]"
Cc1ccc(/C=C/C(=O)CCC(=O)O)cc1,,"inconclusive: 16.4 µM [activator, single point]"
CCCCC(=O)NC(c1ccccc1Cl)c1c(O)ccc2ccccc12 (centres undefined),inactive: -29.9%,
O=C(NC(=S)Nc1ccc2[nH]ncc2c1)c1ccccc1,,"inconclusive: 16.4 µM [activator, partial curve]"
COCCCNc1oc(-c2cccs2)nc1S(=O)(=O)c1ccc(C)cc1,,"inconclusive: 20.6 µM [inhibitor, partial curve, poor fit]"
CCN(CC(=O)Nc1cccc(C#N)c1)CC(=O)Nc1cccc(OC)c1,inactive: -7.74%,
CCOP(=O)(NC(c1ccccc1)c1nc2ccccc2[nH]c1=O)OCC (centres undefined),,"inconclusive: 25.9 µM [activator, single point]"
COc1cc(C(=O)Nc2nc3ccc(S(C)(=O)=O)cc3s2)cc(OC)c1C,,"inconclusive: 29.1 µM [inhibitor, single point]"
Cn1nc(C(=O)N2CCC(C(N)=O)CC2)c2c1-c1ccccc1SC2,inactive: 21.1%,
O=C(NCc1ccc(OC(F)(F)F)cc1)C1CC(c2ccccc2[N+](=O)[O-])=NO1 (centres undefined),,"inconclusive: 29.1 µM [inhibitor, single point]"
CCn1c(/C=C/c2ccccc2)nc2ccccc2c1=O,inactive: -18.8%,
COc1ccc(N2CCN(C(=O)c3cc(-c4cc(OC)ccc4OC)nc4ccccc34)CC2)cc1,,active: 7.3 µM
COC(=O)c1ccc(/C=C/C(=O)OCC(=O)NCc2cccs2)cc1,,"inconclusive: 29.1 µM [activator, single point]"
Cc1ccccc1/C=C/c1cc[n+](C)cc1,,"inconclusive: 29.1 µM [inhibitor, single point]"
CCCCc1ccc(NC(=O)c2ccc(N(C)S(C)(=O)=O)cc2)cc1,,active: 1.46 µM
CN(C)/C=C(/C(=O)c1ccc(F)cc1)S(=O)(=O)c1ccc(F)cc1,,"inconclusive: 18.3 µM [activator, single point]"
COc1ccc(C(=O)Cc2cnn(-c3ccccc3)c2)c(O)c1,,"inconclusive: 11.6 µM [activator, partial curve]"
O=C(O)/C=C/c1cn(-c2ccccc2)nc1-c1cc2ccccc2o1,inactive: 16.4%,
O=C(NCc1ccco1)c1ccccc1NS(=O)(=O)c1ccc(Cl)s1,,"inconclusive: 23.1 µM [inhibitor, partial curve]"
COc1ccc(CN(C)C(=O)c2ccc(OCC(=O)Nc3cccc(C(F)(F)F)c3)c(OC)c2)c(OC)c1,,"inconclusive: 10 µM [inhibitor, partial curve, poor fit]"
Cc1cc(C(=O)OCC(=O)Nc2ccccc2F)c(C)o1,,"inconclusive: 20.6 µM [activator, single point]"

# A few values from the list.
# For activity change, negative = inhibition, CC(C)(C)NC(=S)N1CCC(C(=O)c2ccc(F)cc2)CC1 shows inactive: -9.83%
# For Potency, c1ccc(-c2nc(NCC3CCCO3)c3oc4ccccc4c3n2)cc1 (centres undefined) shows active: 16.4 µM
